Our source for the activity on this sequence (% white plaques (inversion)) values is US5227288.

For at least one entry, the source does not settle the construct or the ends of the probe. Tags and fusion partners may be left off the protein sequences shown.

The data set has as its target T1, Lambda integrase (Int) (Bacteriophage lambda) (UniProt P03700).
T1 sequence (looked up, limits assumed): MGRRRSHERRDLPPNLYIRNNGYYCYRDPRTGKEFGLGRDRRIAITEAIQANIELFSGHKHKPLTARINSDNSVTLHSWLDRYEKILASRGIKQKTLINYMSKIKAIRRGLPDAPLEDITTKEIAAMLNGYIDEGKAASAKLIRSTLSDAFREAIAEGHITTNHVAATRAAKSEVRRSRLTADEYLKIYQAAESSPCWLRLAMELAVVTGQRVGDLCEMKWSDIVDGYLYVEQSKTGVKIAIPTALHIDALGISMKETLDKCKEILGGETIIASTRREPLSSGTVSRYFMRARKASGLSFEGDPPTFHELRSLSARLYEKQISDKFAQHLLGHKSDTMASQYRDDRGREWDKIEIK
Briefly: activity in cells. The settings on record: control without Int 100% blue, junction confirmed by sequencing, protein in cells.

As for “AGCTCCCGGGGTCAAGTTAGTATAAAAAAGCAGGCATGG (double strand)”, the activity on this sequence (% white plaques (inversion)) (attB x attP inversion in Janus vector in E. coli JM101 p(Int) with IPTG) is greater than 90.
As for “GCGCTAATGCTCTGTTACAGGTCACTAATACCATCTAAGTAGTTGATTCATAGTGACTGCATATGTTGTGTTTTACAGTATTATGTAGTCTGTTTTTTATGCAAAATCTAATTTAATATATTGATATTTATATCATTTTACGTTTCTCGTTCAGCTTTTTTATACTAAGTTGGCATTATAAAAAAGCATTGCTTATCAATTTGTTGCAACGAACAGGTCACTATCAGTCAAAATAAAATCATTATTTGATTTCAATTTTGTCCCACTCCCTGCCTCTGTCATCACGATACTGTGATGCCATGGTGTCCGACTTATGCCCGAGAAGATGTTGAGCAAACTTATCGCTTATCTGCTTCTCATAGAGTCTTGCAGACAAACTGCGCAACTCGTGAAAGGTAGGCG (double strand) [attP site in Janus vector]”, for the setting “attP x attB inversion in Janus vector in E. coli JM101 p(Int) with IPTG”, the activity on this sequence (% white plaques (inversion)) is greater than 90.
